This assay has as its target hemolysin-coregulated protein 1 (Hcp1), His-tagged (E. coli K1 RS218). Kind of assay: affinity purification with mass spectrometry; HBMEC cells treated with His-tagged Hcp1, lysed (50 mM Tris-HCl pH 7.5, 1% NP-40, 150 mM NaCl, 5 mM EDTA, 5 mM EGTA); precipitated with anti-His antibody on Protein A beads (IgG control); SDS-PAGE bands digested in gel and identified by LC-MS; only the target purified.

These are yes or no findings as the source states them, for the method shown. Binding seen in cells or lysates may run through a third protein. A yes stands for co-enrichment or nearness to the bait. Other partners may have been found.

B1: Rho GTPase activating protein 24 (ARHGAP24) (protein, UniProt Q8N264 1-748)
chain: MEENNDSTENPQQGQGRQNAIKCGWLRKQGGFVKTWHTRWFVLKGDQLYYFKDEDETKPLGTIFLPGNKVSEHPCNEENPGKFLFEVVPGGDRDRMTANHESYLLMASTQNDMEDWVKSIRRVIWGPFGGGIFGQKLEDTVRYEKRYGNRLAPMLVEQCVDFIRQRGLKEEGLFRLPGQANLVKELQDAFDCGEKPSFDSNTDVHTVASLLKLYLRELPEPVIPYAKYEDFLSCAKLLSKEEEAGVKELAKQVKSLPVVNYNLLKYICRFLDEVQSYSGVNKMSVQNLATVFGPNILRPKVEDPLTIMEGTVVVQQLMSVMISKHDCLFPKDAELQSKPQDGVSNNNEIQKKATMGQLQNKENNNTKDSPSRQCSWDKSESPQRSSMNNGSPTALSGSKTNSPKNSVHKLDVSRSPPLMVKKNPAFNKGSGIVTNGSFSSSNAEGLEKTQTTPNGSLQARRSSSLKVSGTKMGTHSVQNGTVRMGILNSDTLGNPTNVRNMSWLPNGYVTLRDNKQKEQAGELGQHNRLSTYDNVHQQFSMMNLDDKQSIDSATWSTSSCEISLPENSNSCRSSTTTCPEQDFFGGNFEDPVLDGPPQDDLSHPRDYESKSDHRSVGGRSSRATSSSDNSETFVGNSSSNHSALHSLVSSLKQEMTKQKIEYESRIKSLEQRNLTLETEMMSLHDELDQERKKFTMIEIKMRNAERAKEDAEKRNDMLQKEMEQFFSTFGELTVEPRRTERGNTIWIQ
In the case of B1, the binding entry was “binds”.

Source of the values: PMC5395654.
